# Test results taken from PubChem BioAssay AID504834 (National Center for Advancing Translational Sciences (NCATS), 2011).
# Among all 320,000 compounds or so, about 22,000 (6.9%) were called active. This list was built around the results that the source calls inconclusive (neither active nor inactive); the mix of calls is not that of the screen. Calls come from the whole dose curve; as a rule, active = well fitted inhibition curve with a large enough effect; inconclusive = small, poorly fitted or top-dose-only effect, or another doubt; inactive = no such curve, though single readings can be large or run the other way. Where the call is inconclusive, the potency comes from a doubtful curve fit.
# Experiment: Primary qHTS for delayed death inhibitors of the malarial parasite plastid, 96 hour incubation
# Conditions: P. falciparum luciferase reporter growth; series mostly up to 28.7 µM
# In short: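 Cell-based qHTS: luciferase-tagged P. falciparum in erythrocytes (2% hematocrit, 0.05% parasitemia final) incubated with compounds for 96 hours, 37 C, 5% CO2; luciferase detection reagent then added and luminescence measured.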
# Potency is the fitted concentration of half-maximal effect.
row,SMILES,Potency
1,COc1ccc(CC(=O)Nc2ccccc2C(=O)N2CCCC2)cc1,inactive
2,Cc1c(OCC(=O)NCCCn2ccnc2)ccc2c3c(c(=O)oc12)CCC3,"inconclusive: 20.8 µM [inhibitor, single point]"
3,Cc1cccc(-n2ncc3c2CCCC3NC(=O)c2ccc[n+]([O-])c2)c1C (stereo not drawn),"inconclusive: 10.4 µM [inhibitor, partial curve, poor fit]"
4,COC(=O)CCC(=O)N1CCCC(N2CCN(c3ccc(OC)cc3)CC2)C1 (stereo not drawn),"inconclusive: 9.28 µM [inhibitor, partial curve, poor fit]"
5,CN1CCCN(Cc2nc(-c3cccc(C(F)(F)F)c3)no2)CC1,active: 11.7 µM
6,O=C(C1CCCN(S(=O)(=O)c2ccc(Br)cc2)C1)N1CCN(Cc2ccccc2)CC1 (stereo not drawn),inactive
7,COc1ccc(-c2nc(=S)[nH][nH]2)cc1,"inconclusive: 18.5 µM [inhibitor, single point]"
8,CCOC(=O)c1cnc2c(C)cccc2c1NCCCN1CCOCC1,"inconclusive: 18.5 µM [inhibitor, single point]"
9,O=C1OCCC1Sc1nc2ccccc2n1-c1ccccc1 (stereo not drawn),active: 11.7 µM
10,CCOc1ccccc1NC(=O)CN1CCN(C(=O)C2CCCO2)CC1 (stereo not drawn),"inconclusive: 3.7 µM [inhibitor, partial curve, poor fit]"
11,O=C(CSc1nnc(-c2ccc(Cl)cc2)n1Cc1ccco1)c1cccs1,"inconclusive: 18.5 µM [inhibitor, single point]"
12,Cc1ccc(S(=O)(=O)Cc2csc(N)n2)cc1,inactive
13,N/C(=N\OC(=O)c1cccc2ccccc12)c1ccncc1,"inconclusive: 18.5 µM [inhibitor, single point]"
14,C=CCn1c(N)c(C(=O)NCCC2=CCCCC2)sc1=S,inactive
15,CCOc1cccc(NC(=O)c2ccc(S(=O)(=O)N(C)C)cc2)c1,"inconclusive: 10.4 µM [inhibitor, partial curve]"
16,COCCNC(=O)N1[C@H]2CC[C@@H]1C(C(=O)OC)=C(c1ccc(OC(F)(F)F)cc1)C2,inactive
17,Cc1cc(-c2ccccc2)cc(-c2ccccc2)[n+]1CCc1ccccc1,active: 0.522 µM
18,N#C/C(=C\c1cccc(O)c1)C(=O)N1CCCCC1,"inconclusive: 18.5 µM [inhibitor, single point]"
19,CC1(C)CC(=O)C(C=NCC(N)=O)=C(O)C1,"inconclusive: 0.104 µM [inhibitor, full curve, poor fit]"
20,O=C(COC(=O)c1ccccc1C(=O)c1ccccc1)NCCc1ccccc1,"inconclusive: 18.5 µM [inhibitor, single point]"
21,Cc1cc(O)c2ccccc2c1O,active: 8.49 µM
22,C=CCc1ccc(OCCOCCN(C)C)c(OC)c1,inactive
23,COc1cc(OC)c(NC(=O)/C=C/C(=O)O)cc1Cl,"inconclusive: 3.29 µM [inhibitor, single point]"
24,CN(C)S(=O)(=O)c1ccc(SCC(=O)N2CC(=O)Nc3ccccc32)nc1,"inconclusive: 10.4 µM [inhibitor, partial curve, poor fit]"
25,COc1ccc(S(=O)(=O)CCC(=O)NCCc2cccc(C)c2)cc1,"inconclusive: 18.5 µM [inhibitor, single point]"

row,SMILES,Potency
1,CSc1nc2ncc(C#N)cn2n1,inactive
2,CCN(CC)c1ccc(S(=O)(=O)N2CCOCC2)cc1NC(=O)CSc1nncn1C,"inconclusive: 11.7 µM [inhibitor, single point]"
3,CCc1noc(C)c1C(=O)NNC(=O)c1cc(OC)cc(OC)c1,inactive
4,Cc1ccc(NC(=O)NC(=O)c2cnccc2C(F)(F)F)c(C)c1,"inconclusive: 18.5 µM [inhibitor, single point]"
5,O=C(Nc1ccc(Oc2ccc(C(F)(F)F)cn2)c(Cl)c1)C1CC1,active: 11.7 µM
6,O=C(COC(=O)c1ccc2ccccc2n1)c1ccc(F)cc1,"inconclusive: 18.5 µM [inhibitor, single point]"
7,COc1cccc(N2C(=O)CC(N3CCC(C(N)=O)(N4CCCCC4)CC3)C2=O)c1 (stereo not drawn),"inconclusive: 0.415 µM [inhibitor, partial curve, poor fit]"
8,Cc1onc(-c2c(Cl)cccc2Cl)c1NC(=O)NN(C)c1ccc([N+](=O)[O-])cn1,"inconclusive: 10.4 µM [inhibitor, single point]"
9,Cc1nc(SC(C)C(=O)NCC2CCCO2)c2cc(-c3ccccc3)sc2n1 (stereo not drawn),"inconclusive: 10.4 µM [inhibitor, single point]"
10,CC(C)(C)c1cc(C(=S)N2CCCC2)cc(C(C)(C)C)c1O,active: 4.15 µM
11,CCC(=O)Nc1cccc(NC(=O)COc2ccc(OC)cc2)c1,"inconclusive: 13.1 µM [inhibitor, single point]"
12,Cc1cccc(-c2cc(C(=O)Nc3cccnc3)c3ccccc3n2)c1,"inconclusive: 9.28 µM [inhibitor, single point]"
13,Cn1c(=O)c(=O)n(C)c2cc(S(=O)(=O)N3CCN(C4CCCCC4)CC3)ccc21,active: 8.28 µM
14,CN(C)CCCNc1oc(-c2ccc(Cl)cc2)nc1C#N,"inconclusive: 10.4 µM [inhibitor, partial curve, poor fit]"
15,CCOC(=O)C1CCN(C(=O)c2ccccc2Oc2ccccc2)CC1,"inconclusive: 1.17 µM [inhibitor, partial curve, poor fit]"
16,O=C1CC(c2ccc(O)c(O)c2)Oc2c1ccc(O)c2O (stereo not drawn),active: 2.08 µM
17,COc1ccccc1NC(=O)c1ccc(NC(=O)COC(=O)C2CCCO2)cc1 (stereo not drawn),"inconclusive: 4.15 µM [inhibitor, single point]"
18,CCC1=Nc2cc(C(=O)NCCN3CCCC3)ccc2Sc2ccc(C)cc21,"inconclusive: 18.5 µM [inhibitor, single point]"
19,CCOc1ccc(OCC)c(S(=O)(=O)N2CCOCC2)c1,"inconclusive: 14.7 µM [inhibitor, partial curve, poor fit]"
20,Cc1cccc(NC(=S)NCCN2CCOCC2)c1,"inconclusive: 18.5 µM [inhibitor, single point]"
21,Cc1cc(C=C2C(=O)c3ccccc3C2=O)c(C)n1-c1ccc(Cl)cc1,inactive
22,O=C(NCCc1ccccc1)c1c(O)c2ccccc2[nH]c1=O,"inconclusive: 13.1 µM [inhibitor, partial curve, poor fit]"
23,COc1cnc(-c2ccccn2)nc1NC(C)C,"inconclusive: 0.522 µM [inhibitor, full curve]"
24,Cc1ccccc1C(C(=O)NC1CCCCC1)N(C(=O)c1ccccn1)c1cccnc1 (stereo not drawn),inactive
25,O=c1/c(=C\c2ccc(F)cc2)sc2n1CCCN=2,inactive

row,SMILES,Potency
1,CC(C)(C)c1ccc(C(=O)C2CCCN(Cc3ccon3)C2)cc1 (stereo not drawn),"inconclusive: 10.4 µM [inhibitor, single point]"
2,COC(=O)c1cc(C#N)c(=O)[nH]c1C,"inconclusive: 18.5 µM [inhibitor, partial curve, poor fit]"
3,Cc1ccc(-n2c(=S)[nH]c3[nH]ncc3c2=O)cc1,inactive
4,COc1cccc(/C=N/Nc2nc3ccccc3[nH]2)c1O,active: 2.33 µM
5,Cc1nn(Cc2ccccc2)c(Cl)c1/C=C/C(=O)OC(C)C(=O)N1CCCC1 (stereo not drawn),active: 3.7 µM
6,Cc1cc(OCc2nc(-c3ccc(NC(=O)c4cccnc4)cc3)no2)ccc1Cl,"inconclusive: 0.522 µM [inhibitor, partial curve, poor fit]"
7,CCc1ccccc1NC(=O)CN(C)C(=O)Cn1cnc2ccc(Cl)cc2c1=O,"inconclusive: 18.5 µM [inhibitor, single point]"
8,O=C(COC(=O)c1ccccc1C(=O)c1ccc(Cl)c([N+](=O)[O-])c1)NC1CC1,inactive
9,COc1ccc2cc(C(=O)NCc3ccccc3)[nH]c2c1,inactive
10,COc1cc(OC)cc(C(=O)NNC(=O)CCc2ccccc2)c1,"inconclusive: 10.4 µM [inhibitor, single point]"
11,CC(=O)Nc1ccc(C)cc1,"inconclusive: 0.928 µM [inhibitor, partial curve]"
12,CN(CC(=O)Nc1ccccc1Br)C(=O)c1ccncc1,"inconclusive: 18.5 µM [inhibitor, single point]"
13,C=CCn1c(SCC)nc2sc3c(c2c1=O)CCc1ccccc1-3,"inconclusive: 10.4 µM [inhibitor, single point]"
14,COc1ccc(C(=O)N/C(=C/c2cccnc2)C(=O)N2CCN(C)CC2)cc1OC,"inconclusive: 18.5 µM [inhibitor, single point]"
15,O=C(Nc1nc2ccccc2s1)Nc1ccc(F)cc1F,inactive
16,O=C1N=C(N2CCC(Cc3ccccc3)CC2)S/C1=C/c1cn[nH]c1-c1ccccc1,"inconclusive: 16.5 µM [inhibitor, single point]"
17,Cc1nnc2c(NC3CCCC3)nc3ccccc3n12,"inconclusive: 18.5 µM [inhibitor, single point]"
18,COC(=O)N/N=C/c1ccc(-c2cc(Cl)ccc2Cl)o1,"inconclusive: 11.7 µM [inhibitor, single point]"
19,O=C(NC(n1ccc(=O)[nH]c1=O)C(Cl)(Cl)Cl)C12CC3CC(CC(C3)C1)C2 (stereo not drawn),inactive
20,Cc1ccc(C(=O)N2CCCCC2)cc1S(=O)(=O)N1CCCCCC1,active: 8.28 µM
21,CNC(=O)NC(=O)CSc1cccc(C(F)(F)F)c1,"inconclusive: 18.5 µM [inhibitor, partial curve, poor fit]"
22,c1ccc2c(c1)[nH]c1cnccc12,inactive
23,COC(=O)c1ccccc1NC(=O)Cn1ccnc1,"inconclusive: 13.1 µM [inhibitor, partial curve, poor fit]"

# Shown with bars between the fields: six of the compounds above
row | SMILES | Potency
24 | CN(C)S(=O)(=O)c1ccc(SCC(=O)N2CC(=O)Nc3ccccc32)nc1 | inconclusive: 10.4 µM [inhibitor, partial curve, poor fit]
7 | COc1cccc(N2C(=O)CC(N3CCC(C(N)=O)(N4CCCCC4)CC3)C2=O)c1 (stereo not drawn) | inconclusive: 0.415 µM [inhibitor, partial curve, poor fit]
16 | O=C1CC(c2ccc(O)c(O)c2)Oc2c1ccc(O)c2O (stereo not drawn) | active: 2.08 µM
20 | Cc1cccc(NC(=S)NCCN2CCOCC2)c1 | inconclusive: 18.5 µM [inhibitor, single point]
25 | O=c1/c(=C\c2ccc(F)cc2)sc2n1CCCN=2 | inactive
19 | O=C(NC(n1ccc(=O)[nH]c1=O)C(Cl)(Cl)Cl)C12CC3CC(CC(C3)C1)C2 (stereo not drawn) | inactive
